Reference: patent US20200347127A1
Positions count from the first letter of the chain named. No constants are given. Whether binding was seen depends on the method and setting. For some assays here: Binding calls can cover weak binding; strength is not graded here. Sequences can lack the tags named with a protein.

B1: VH 1.1.1 (clone 1.1 expressed from phagemid vector: with linker residues and His tag) (VHH)
VHH: EVQLVESGGGLVQPGGSLRLSCAASGFTFSSYSMYWVRQAPGKGLEWVANIKQDGSEKYYVDSVKGRFTISRDNAKNSLFLQMNSLRAEDTAVYYCAKGEILPLHFDYWGQGTLVTVSS
B2: VH 1.6.1 (clone 1.6 expressed from phagemid vector: with linker residues and His tag) (VHH)
VHH: B1 VHH with N50E, K58Q, F80Y, H105Y
B3: VH 1.3.1 (clone 1.3 expressed from phagemid vector: with linker residues and His tag) (VHH)
VHH: B1 VHH with N50E, E57V, K58Q, F80Y, H105Y
B4: VH 1.16.1 (clone 1.16 expressed from phagemid vector: with linker residues and His tag) (VHH)
VHH: B1 VHH with N50E, K58Q, F80Y, S85G, H105Y
B5: VH 1.19.1 (clone 1.19 expressed from phagemid vector: with linker residues and His tag) (VHH)
VHH: B1 VHH with A24T, S33G, N50E, F80Y, H105Y
B6: VH 1.10.1 (clone 1.10 expressed from phagemid vector: with linker residues and His tag) (VHH)
VHH: B1 VHH with S33R, N50S, K52E, K58E, N77K, H105Y
B7: Clone 1.15 (VHH)
VHH: B1 VHH with N50E, K52R, K58Q, F80Y, H105Y
B8: VH 1.20.1 (clone 1.20 expressed from phagemid vector: with linker residues and His tag) (VHH)
VHH: B1 VHH with S33G, N50K, K52E, K58E, V61A, N77K, F80Y, H105Y

What follows are binders tested against KLH (assay: specificity ELISA on coated antigen, VH concentration not given).

Question: How did the binding turn out when B1 was run?
Answer: no binding

Question: Which binding does the source give for B2 here?
Answer: no binding

Question: Which binding does the source give for B3 here?
Answer: no binding

Question: With B4 as the binder, how does the binding read?
Answer: no binding

Question: With B5 as the binder, how does the binding read?
Answer: no binding

Question: With B6 as the binder, how does the binding read?
Answer: no binding

Question: With B7 as the binder, how does the binding read?
Answer: no binding

Question: With B8 as the binder, how does the binding read?
Answer: no binding

The binders below were run against IL17B in the same assay as above.

Question: How did the binding turn out when B1 was run?
Answer: no binding

Question: B2 was tested. Which binding did it give?
Answer: no binding

Question: For B6, which binding is on record?
Answer: no binding

The binders below were run against cynoIL17 (cynomolgus monkey) in the same assay as above.

Question: Which binding does the source give for B1 here?
Answer: binds

Question: B2 was tested. Which binding did it give?
Answer: binds

Question: With B6 as the binder, how does the binding read?
Answer: binds

These binders were tested against IL17D in the same assay as above.

Question: For B1, which binding is on record?
Answer: no binding

Question: Which binding does the source give for B2 here?
Answer: no binding

Question: For B6, which binding is on record?
Answer: no binding
